From patent publication US20250338851A1, “Boosted IPBC for Wet-State Bacterial Control” (Troy Technology II, Inc., priority 2021, published 2025)
At least one compound was matched to its structure with a doubt left. Marks after values point to notes of the source that are not given here.

Tested on: bacterial consortium: Alcaligenes faecalis (ATCC #25094), Enterobacter aerogenes (ATCC #13048), Escherichia coli (ATCC #11229), Pseudomonas aeruginosa (ATCC …)
Experiment: Bacterial challenge testing (standard)
Format: cell-based
Settings: Interior Paint #5 with 800 ppm IPBC + 400 ppm ZnO, + 0.5% solvent
Experimental: Bacterial and fungal challenge testing was performed following Troy's standard challenge test procedure SOP MI-07. […] Where indicated, additional bacterial organisms were added to the inoculum such that each organism in the inoculum provided equal CFU. […] Fungal consortia were prepared on Malt Agar slants and diluted to 10^6 spores/mL using a hemocytometer to count before use. Each mixture was prepared shortly before each inoculation. Inoculations were performed by adding 0.5 mL to 50 g of the indicated test sample, giving either ˜10^6 CFU/g of bacteria or ˜10^4 spores/g of fungi per challenge. Viability readings were performed at the indicated intervals following each challenge by applying a small amount of the test sample onto PCA (for bacteria) or Malt Agar (for fungus). Bacterial plates were then incubated at 32° C. for 3-5 days, and Malt Agar plates were incubated for 1 week at 28° C. before reading. Viability plates were evaluated with a semi-quantitative scale. This scale estimates the approximate CFU/g by visual assessment of the colony density along the streak lines. Readings are recorded as the average of two duplicate semi-quantitative readings from “0” to “4.” Samples were mixed before every viability reading and after every inoculation.
Challenge test scoring was done by the weighted sum of squares for each of the twelve data points collected for each test sample. The weighting was done proportional to the streak day, with day 1 weighted at 10%, day 2 weighted at 20%, and day 3 weighted at 70%. The sum of all 12 values is then taken and divided by the score of the unprotected sample to achieve the total growth score. The reported “weighted performance” score is 1 minus the growth score.

How did the Bacterial challenge rating (Week 1, 1 d) turn out when `CCCCOCCOCCOCCO` [Butoxytriglycol] was run?
The Bacterial challenge rating was 3 (Colony Count 101-1000; Approximate CFU/g 10^4-10^5).

What about the Bacterial challenge rating (Week 1, 2 d) of the same molecule?
Its Bacterial challenge rating is 3 (Colony Count 101-1000; Approximate CFU/g 10^4-10^5).

And the Bacterial challenge rating (Week 1, 7 d)?
The Bacterial challenge rating was 2 (Colony Count 11-100; Approximate CFU/g 10^3-10^4).

And the Bacterial challenge rating (Week 2, 1 d)?
Its Bacterial challenge rating is 3 (Colony Count 101-1000; Approximate CFU/g 10^4-10^5).

And the Bacterial challenge rating (Week 2, 2 d)?
The Bacterial challenge rating was 3 (Colony Count 101-1000; Approximate CFU/g 10^4-10^5).

And the Bacterial challenge rating (Week 2, 7 d)?
The Bacterial challenge rating was 2 (Colony Count 11-100; Approximate CFU/g 10^3-10^4).

And the Bacterial challenge rating (Week 3, 1 d)?
Its Bacterial challenge rating is 3 (Colony Count 101-1000; Approximate CFU/g 10^4-10^5).

What about the Bacterial challenge rating (Week 3, 2 d) of the same molecule?
The Bacterial challenge rating was 3 (Colony Count 101-1000; Approximate CFU/g 10^4-10^5).

And the Bacterial challenge rating (Week 3, 7 d)?
The Bacterial challenge rating was 3 (Colony Count 101-1000; Approximate CFU/g 10^4-10^5).

What about the Bacterial challenge rating (Week 4, 1 d) of the same molecule?
Its Bacterial challenge rating is 3 (Colony Count 101-1000; Approximate CFU/g 10^4-10^5).

And the Bacterial challenge rating (Week 4, 2 d)?
Its Bacterial challenge rating is 3 (Colony Count 101-1000; Approximate CFU/g 10^4-10^5).

And the Bacterial challenge rating (Week 4, 7 d)?
The Bacterial challenge rating was 3 (Colony Count 101-1000; Approximate CFU/g 10^4-10^5).
